PubChem BioAssay AID1224829 – NIAID, 2016
The deposit covers about 3,800 reagents; below is a part drawn at random. 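Calls cover raised and lowered translocation; gene median uses one vendor's three siRNAs; qiagen siRNAs acted more weakly than ambion siRNAs.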 A number with no mark means an inactive call. The numbers tell different reagents against one gene apart. Further read-outs or replicates are left out here.

- Screen: 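Follow-up of TLR4-NF-kappaB regulators using six separate siRNAs for each gene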 (follow-up of hits)
- Cell system: mouse RAW264.7 G9 macrophage reporter cells
- Knock-down reagent: single siRNA against mouse genes, 100 nM
- Timing: 2 days of siRNA knock-down, then 40 min of LPS before fixing
- Conditions: LPS (Salmonella minnesota R595) at 10 ng/ml
- Detection: 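High-content images after 40 min LPS exposure; GFP-p65 nucleus to surrounding ring signal ratio, normalised to plate median and non-targeting control wells, expressed as z-score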
- Reading the numbers: p65 translocation z-score: higher = more nuclear NF-kappaB p65 after LPS
- Call rule: 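Active means the replicate-mean z-score lies beyond plus or minus 2, in either direction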
- Calls: active = changed p65 translocation (either direction); inactive = no clear change

Irf8 (interferon regulatory factor 8) #1, siRNA vendor or control pool ambion single siRNA | p65 translocation z-score, replicate mean = -2.77 (active)
Irf8 (interferon regulatory factor 8) #2, siRNA vendor or control pool ambion single siRNA | p65 translocation z-score, replicate mean = -2.4 (active)
Irf8 (interferon regulatory factor 8) #3, siRNA vendor or control pool ambion single siRNA | p65 translocation z-score, replicate mean = -2.13 (active)
Irf8 (interferon regulatory factor 8) #4, siRNA vendor or control pool qiagen single siRNA | p65 translocation z-score, replicate mean = 3.86 (active)
Irf8 (interferon regulatory factor 8) #5, siRNA vendor or control pool qiagen single siRNA | p65 translocation z-score, replicate mean = -1.51
Irf8 (interferon regulatory factor 8) #6, siRNA vendor or control pool qiagen single siRNA | p65 translocation z-score, replicate mean = -3.85 (active)
Ssh3 (slingshot protein phosphatase 3) #1, siRNA vendor or control pool ambion single siRNA | p65 translocation z-score, replicate mean = 1.09
Ssh3 (slingshot protein phosphatase 3) #2, siRNA vendor or control pool ambion single siRNA | p65 translocation z-score, replicate mean = -1.62
Ssh3 (slingshot protein phosphatase 3) #3, siRNA vendor or control pool ambion single siRNA | p65 translocation z-score, replicate mean = -2.62 (active)
Ssh3 (slingshot protein phosphatase 3) #4, siRNA vendor or control pool qiagen single siRNA | p65 translocation z-score, replicate mean = -1.81
Ssh3 (slingshot protein phosphatase 3) #5, siRNA vendor or control pool qiagen single siRNA | p65 translocation z-score, replicate mean = -1.01
Ssh3 (slingshot protein phosphatase 3) #6, siRNA vendor or control pool qiagen single siRNA | p65 translocation z-score, replicate mean = -4.51 (active)

Next part (4 carried over from the part before).
Ssh3 (slingshot protein phosphatase 3) #3, siRNA vendor or control pool ambion single siRNA | p65 translocation z-score, replicate mean = -2.62 (active)
Ssh3 (slingshot protein phosphatase 3) #4, siRNA vendor or control pool qiagen single siRNA | p65 translocation z-score, replicate mean = -1.81
Ssh3 (slingshot protein phosphatase 3) #5, siRNA vendor or control pool qiagen single siRNA | p65 translocation z-score, replicate mean = -1.01
Ssh3 (slingshot protein phosphatase 3) #6, siRNA vendor or control pool qiagen single siRNA | p65 translocation z-score, replicate mean = -4.51 (active)
Gabrb1 (gamma-aminobutyric acid type A receptor subunit beta 1) #1, siRNA vendor or control pool ambion single siRNA | p65 translocation z-score, replicate mean = 1.02
Gabrb1 (gamma-aminobutyric acid type A receptor subunit beta 1) #2, siRNA vendor or control pool ambion single siRNA | p65 translocation z-score, replicate mean = 0.956
Gabrb1 (gamma-aminobutyric acid type A receptor subunit beta 1) #3, siRNA vendor or control pool ambion single siRNA | p65 translocation z-score, replicate mean = -2.42 (active)
Gabrb1 (gamma-aminobutyric acid type A receptor subunit beta 1) #4, siRNA vendor or control pool qiagen single siRNA | p65 translocation z-score, replicate mean = -0.453
Gabrb1 (gamma-aminobutyric acid type A receptor subunit beta 1) #5, siRNA vendor or control pool qiagen single siRNA | p65 translocation z-score, replicate mean = 3.25 (active)
Gabrb1 (gamma-aminobutyric acid type A receptor subunit beta 1) #6, siRNA vendor or control pool qiagen single siRNA | p65 translocation z-score, replicate mean = 1.87
Fbxw11 (F-box and WD-40 domain protein 11) #1, siRNA vendor or control pool ambion single siRNA | p65 translocation z-score, replicate mean = 1.38
Fbxw11 (F-box and WD-40 domain protein 11) #2, siRNA vendor or control pool ambion single siRNA | p65 translocation z-score, replicate mean = -2.7 (active)
Fbxw11 (F-box and WD-40 domain protein 11) #3, siRNA vendor or control pool ambion single siRNA | p65 translocation z-score, replicate mean = -2.28 (active)
Fbxw11 (F-box and WD-40 domain protein 11) #4, siRNA vendor or control pool qiagen single siRNA | p65 translocation z-score, replicate mean = -0.75
Fbxw11 (F-box and WD-40 domain protein 11) #5, siRNA vendor or control pool qiagen single siRNA | p65 translocation z-score, replicate mean = -1.16
Fbxw11 (F-box and WD-40 domain protein 11) #6, siRNA vendor or control pool qiagen single siRNA | p65 translocation z-score, replicate mean = -6.78 (active)
Adcy9 (adenylate cyclase 9) #1, siRNA vendor or control pool ambion single siRNA | p65 translocation z-score, replicate mean = -1.84
Adcy9 (adenylate cyclase 9) #2, siRNA vendor or control pool ambion single siRNA | p65 translocation z-score, replicate mean = -0.186
Adcy9 (adenylate cyclase 9) #3, siRNA vendor or control pool ambion single siRNA | p65 translocation z-score, replicate mean = -1.58
Adcy9 (adenylate cyclase 9) #4, siRNA vendor or control pool qiagen single siRNA | p65 translocation z-score, replicate mean = -0.0756
Adcy9 (adenylate cyclase 9) #5, siRNA vendor or control pool qiagen single siRNA | p65 translocation z-score, replicate mean = 0.296
Adcy9 (adenylate cyclase 9) #6, siRNA vendor or control pool qiagen single siRNA | p65 translocation z-score, replicate mean = -3.98 (active)
